The values below come from PubChem BioAssay AID1487 (National Center for Advancing Translational Sciences (NCATS), 2009).

A short description of this assay: qHTS Assay for Modulators of Lamin A Splicing. The note with it: HeLa LMNA splicing GFP/RFP minigene ratio, 48 h. The method in brief: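 S3 HeLa cells stably expressing lamin A-EGFP splicing minigene plus DsRed2, 600 cells/well, 48 h compound exposure at 37C. Laser-scanning cytometry; analysed as GFP (500-530 nm)/RFP (575-640 nm) total intensity ratio; 0.5% DMSO vehicle.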
(In general: Quantitative high-throughput screening tests each substance at several concentrations.)

Where [1] appears, read: measured here: RFP viability control channel.
Where [2] appears, read: measured here: GFP splicing reporter channel.

SMILES strings stand for the structures. Where “and” joins values, the source holds several entries; their conditions need not be identical. Identical values can stand only once. This is one part of the list. Shown are side measurements of this screen, not its main read-out; they come without a call. The list favours compounds with an active or inconclusive main result. Words in brackets tell the shape of the fitted curve; partial curves, single points and poor fits give uncertain potencies.

Consider `O=C(CC1C(=O)NCCN1Cc1ccc(F)c(F)c1)NCCn1cccn1` (configuration not stated), for which the AC50 under setting [1] is 22.4 µM [falling, partial curve, poor fit].

In the case of `O=C(C1CCCN(S(=O)(=O)Cc2ccccc2)C1)N1CCc2ccccc21` (configuration not stated), the AC50 by setting is: under setting [2], 35.5 µM [rising, single point]; under setting [1], 35.5 µM [rising, single point].

Turning to `Cc1csc2nc(-c3cccc(NC(=O)c4ccccc4Cl)c3)cn12`, the concentration at half-maximal activity (AC50) under setting [2] was 35.5 µM [falling, single point].

On to `CCC(=O)N1CCN(c2nc(-c3ccc(Cl)cc3)cs2)CC1`, for which the AC50 under setting [2] is 35.5 µM [rising, single point] and the AC50 under setting [1] was 35.5 µM [rising, single point].

In the case of `Cc1ccc(O)c(C(=O)c2cnc3onc(-c4ccc(F)cc4)c3c2)c1`, the AC50 reads like this: under setting [2], 3.16 µM [rising, full curve]; under setting [1], 11.2 µM [rising, partial curve].

Consider `Cn1cc(C(=O)N/N=C/C(Br)=C\c2ccccc2)ccc1=O`, for which the AC50 was 25.1 µM [falling, single point] under setting [2] and 35.5 µM [falling, single point] under setting [1].

As for `O=C(NC1CCCCCC1)C1CCN(C(=O)N2CCOc3ccccc32)CC1`, under setting [1], the AC50 was 0.794 µM [falling, partial curve].

With `COc1ccc(C(=O)NCC(C)(C)SCc2c(C)cc(C)cc2C)cc1`, the AC50 is 12.6 µM [falling, single point] under setting [2] and 11.2 µM [falling, single point] under setting [1].

Take `Cc1ccc(C(c2sc3nc(C)nn3c2O)N2CCN(c3ccc(F)cc3)CC2)cc1` (configuration not stated): under setting [1], the AC50 is 35.5 µM [rising, single point].

Consider `CC(C)CN1CCN(Cc2ccc(C#CC(C)(C)O)cc2)CC1CCO` (configuration not stated), for which, under setting [2], the AC50 was 35.5 µM [falling, single point].

`c1csc(CNc2ccnc(-c3ccc4c(c3)OCO4)n2)c1`: the AC50 under setting [1] was 0.316 µM [falling, full curve, poor fit].

In the case of `CC(C)(C)c1ccc(-c2nc(C#N)c(NCc3cccnc3)o2)cc1`, the AC50 under setting [2] was 35.5 µM [rising, single point] and the AC50 under setting [1] is 15.8 µM [rising, single point].

With `N#Cc1c(NC(=O)c2cnccn2)sc2c1CCCC2`, the AC50 under setting [2] is 28.2 µM [rising, single point] and the AC50 under setting [1] was 22.4 µM [rising, single point].

In the case of `CCCc1nc([N+](=O)[O-])c(S(=O)(=O)c2ccccc2)n1CC(C)C`, the AC50 under setting [2] is 3.55 µM [rising, single point] and the AC50 under setting [1] is 12.6 µM [rising, partial curve].

For the molecule `CCc1nnc(NC(=O)c2cc(S(=O)(=O)N3CCN(c4ccccc4)CC3)ccc2Cl)s1`, the AC50 under setting [2] was 14.1 µM [rising, single point] and the AC50 under setting [1] was 15.8 µM [rising, single point].

`O=C(CS(=O)(=O)c1ccccc1)Nc1ccc(Br)cn1`: the AC50 is, setting by setting: under setting [2], 3.55 µM [falling, partial curve]; under setting [1], 5.01 µM [falling, partial curve, poor fit].

For `COc1ccc(C(=O)/C(C#N)=N/Nc2ccccc2[N+](=O)[O-])cc1`, the AC50 under setting [2] is 2 µM [rising, full curve, poor fit] and the AC50 under setting [1] is 2.51 µM [rising, full curve].

For `COc1cc(S(=O)(=O)N2CCN(c3ccc(F)cc3)CC2)ccc1Cl`, the AC50 under setting [2] was 12.6 µM [rising, single point] and the AC50 under setting [1] is 28.2 µM [rising, single point].

In the case of `COc1ccc2c(c1)c(CC(=O)O)c(C)n2C(=O)c1ccc(Cl)cc1`, the AC50 is 0.00501 µM [falling, full curve, poor fit] under setting [2]; 1.58 µM [rising, full curve] and 11.2 µM [rising, single point] under setting [1].

For the molecule `CCOC(=O)c1c(-c2ccccc2)csc1NC(=O)/C(C#N)=C/c1ccc(O)c(OC)c1`, the AC50 under setting [2] was 25.1 µM [falling, partial curve] and the AC50 under setting [1] was 20 µM [falling, single point].

Regarding `C=CCn1c(=O)c2c(C)c(C)sc2n2c(Nc3ccccc3)nnc12`, the AC50 under setting [2] was 2 µM [rising, partial curve] and the AC50 under setting [1] was 1.58 µM [rising, partial curve, poor fit].

As to `CCN(CC)S(=O)(=O)c1ccc(C(=O)Nc2ccc3c(c2)OCCO3)cc1`, the AC50 under setting [1] is 10 µM [rising, partial curve].

Turning to `COc1ccc(N(C)C(=O)c2cc3c(Cl)nc4ccccc4c3s2)cc1`, the AC50 runs as follows: under setting [2], 35.5 µM [rising, single point]; under setting [1], 12.6 µM [rising, partial curve].

Take `CCOC(=O)C(CC)Sc1nnc2c3cc(C)ccc3n(C)c2n1` (configuration not stated): the AC50 was 12.6 µM [rising, partial curve] under setting [2] and 20 µM [rising, partial curve] under setting [1].

As for `COc1ccc(C)cc1N(C(=O)c1ccccc1F)c1nc2ccccc2s1`, the AC50 under setting [2] was 7.08 µM [rising, full curve, poor fit].

Consider `CC1CCCN(S(=O)(=O)c2ccc(Br)s2)C1` (configuration not stated), for which the AC50 under setting [2] was 0.0891 µM [falling, partial curve] and the AC50 under setting [1] is 0.398 µM [falling, partial curve].

For the molecule `CC(C)(C)n1[nH]c2c3c(ccc2c1=O)C(=O)c1ccccc1C3=O`, the AC50 under setting [1] is 5.62 µM [rising, partial curve].

Take `C=CCCC(=O)Nc1nc(C)c(-c2csc(Nc3ccccc3OC)n2)s1`: the AC50 under setting [2] is 20 µM [rising, single point].

As to `Cn1c(Cn2nnc3ccccc32)nnc1SCC(=O)N1c2ccccc2Sc2ccccc21`, the AC50 is, setting by setting: under setting [2], 6.31 µM [rising, single point]; under setting [1], 7.08 µM [rising, full curve].

In the case of `COc1ccc(S(=O)(=O)Nc2ccc(C)cc2)cc1N(C)S(=O)(=O)c1ccc(Cl)cc1`, the AC50 under setting [1] is 15.8 µM [falling, partial curve, poor fit].

On to `O=C(O)c1ccc(NC(=O)c2cn(-c3ccccc3)nc2-c2ccc(Cl)cc2)cc1`, for which the AC50 under setting [2] is 5.01 µM [falling, partial curve, poor fit].

For the molecule `Cc1ccc(C(O)CN2C3=NCCCN3c3ccccc32)cc1` (configuration not stated), the AC50 under setting [1] is 2.51 µM [rising, single point].

For `Cc1cc(C)c(NC(=O)C(C)n2nc(-c3ccc(C)c(C)c3)ccc2=O)c(C)c1` (configuration not stated), the AC50 under setting [1] is 35.5 µM [falling, single point].

The term AC50 denotes the concentration at which the activity in the assay is half-maximal.
